Test results from paper PMC8813925.
These are yes or no findings as the source states them, for the method shown. Binding seen in cells or lysates may run through a third protein. Some entries that bind do so weakly or less than the wild type.

By UniProt entry, the sequences of proteins in these tests, tags left out.
UniProt P01106: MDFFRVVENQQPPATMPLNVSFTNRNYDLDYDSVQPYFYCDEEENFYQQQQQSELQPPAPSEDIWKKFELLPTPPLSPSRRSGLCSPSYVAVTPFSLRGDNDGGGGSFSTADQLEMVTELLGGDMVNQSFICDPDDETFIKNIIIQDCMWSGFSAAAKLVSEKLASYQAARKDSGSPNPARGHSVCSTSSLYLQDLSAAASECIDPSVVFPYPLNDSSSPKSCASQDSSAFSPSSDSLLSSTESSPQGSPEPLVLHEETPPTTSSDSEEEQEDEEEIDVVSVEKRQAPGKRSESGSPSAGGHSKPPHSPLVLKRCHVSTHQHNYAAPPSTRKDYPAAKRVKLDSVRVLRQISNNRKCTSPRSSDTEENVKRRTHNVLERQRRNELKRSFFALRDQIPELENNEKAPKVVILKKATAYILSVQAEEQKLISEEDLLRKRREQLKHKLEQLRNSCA
UniProt O14733: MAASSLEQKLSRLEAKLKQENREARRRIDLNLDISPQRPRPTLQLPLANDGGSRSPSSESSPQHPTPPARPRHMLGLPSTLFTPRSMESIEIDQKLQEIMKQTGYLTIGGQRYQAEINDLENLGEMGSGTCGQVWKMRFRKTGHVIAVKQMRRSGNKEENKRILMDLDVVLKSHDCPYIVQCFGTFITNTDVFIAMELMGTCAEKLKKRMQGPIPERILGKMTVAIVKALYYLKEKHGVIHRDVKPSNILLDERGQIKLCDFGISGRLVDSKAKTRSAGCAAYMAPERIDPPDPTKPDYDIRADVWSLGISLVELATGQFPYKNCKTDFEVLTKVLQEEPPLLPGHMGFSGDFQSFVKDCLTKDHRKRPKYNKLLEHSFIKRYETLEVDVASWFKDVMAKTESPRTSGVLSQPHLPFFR

Assays:
[1] = molecular target: c-Myc expressed from the transfected MYC plasmid (UniProt P01106); test: proximity ligation; MKK7-c-Myc complex in RIPK2-KO HEK293T cells transiently transfected with MYC and RIPK2m4 or vector control
[2] = molecular target: c-Myc, endogenous (human (endogenous in PC3)) (UniProt P01106); test: proximity ligation; endogenous MKK7 and c-Myc in PC3 cells

- binding [1]: binds
- binding [2]: binds
Substance: mitogen-activated protein kinase kinase 7 (MKK7), endogenous (from UniProt O14733 1-419)
